From the supplement of paper PMC12067093, “Discovery and optimisation of a covalent ligand for TRIM25 and its application to targeted protein ubiquitination” (Chemical Science, 2025)
The other results are listed elsewhere or left out.

By UniProt entry, the sequences of proteins in these tests, tags left out. Where a name states a change or a piece, a line headed by the entry shows the natural chain unless it says otherwise.
UniProt P16435: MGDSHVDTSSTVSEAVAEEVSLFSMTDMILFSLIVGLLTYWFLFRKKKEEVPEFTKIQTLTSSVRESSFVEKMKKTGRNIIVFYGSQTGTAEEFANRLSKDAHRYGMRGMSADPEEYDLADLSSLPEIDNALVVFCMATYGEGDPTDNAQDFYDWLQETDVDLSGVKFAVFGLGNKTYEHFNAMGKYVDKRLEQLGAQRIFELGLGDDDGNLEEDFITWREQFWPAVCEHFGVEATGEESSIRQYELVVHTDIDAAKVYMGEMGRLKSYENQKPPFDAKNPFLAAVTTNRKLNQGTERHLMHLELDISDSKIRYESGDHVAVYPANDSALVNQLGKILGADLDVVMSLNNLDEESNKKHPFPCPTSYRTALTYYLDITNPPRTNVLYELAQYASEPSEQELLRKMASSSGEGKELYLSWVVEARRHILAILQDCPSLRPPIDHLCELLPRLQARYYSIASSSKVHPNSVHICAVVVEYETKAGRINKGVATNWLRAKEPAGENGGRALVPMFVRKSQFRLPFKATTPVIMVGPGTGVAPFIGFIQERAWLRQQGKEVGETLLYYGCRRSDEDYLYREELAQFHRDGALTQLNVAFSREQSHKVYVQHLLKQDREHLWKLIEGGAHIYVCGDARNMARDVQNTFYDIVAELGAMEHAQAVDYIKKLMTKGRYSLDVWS
UniProt Q99575: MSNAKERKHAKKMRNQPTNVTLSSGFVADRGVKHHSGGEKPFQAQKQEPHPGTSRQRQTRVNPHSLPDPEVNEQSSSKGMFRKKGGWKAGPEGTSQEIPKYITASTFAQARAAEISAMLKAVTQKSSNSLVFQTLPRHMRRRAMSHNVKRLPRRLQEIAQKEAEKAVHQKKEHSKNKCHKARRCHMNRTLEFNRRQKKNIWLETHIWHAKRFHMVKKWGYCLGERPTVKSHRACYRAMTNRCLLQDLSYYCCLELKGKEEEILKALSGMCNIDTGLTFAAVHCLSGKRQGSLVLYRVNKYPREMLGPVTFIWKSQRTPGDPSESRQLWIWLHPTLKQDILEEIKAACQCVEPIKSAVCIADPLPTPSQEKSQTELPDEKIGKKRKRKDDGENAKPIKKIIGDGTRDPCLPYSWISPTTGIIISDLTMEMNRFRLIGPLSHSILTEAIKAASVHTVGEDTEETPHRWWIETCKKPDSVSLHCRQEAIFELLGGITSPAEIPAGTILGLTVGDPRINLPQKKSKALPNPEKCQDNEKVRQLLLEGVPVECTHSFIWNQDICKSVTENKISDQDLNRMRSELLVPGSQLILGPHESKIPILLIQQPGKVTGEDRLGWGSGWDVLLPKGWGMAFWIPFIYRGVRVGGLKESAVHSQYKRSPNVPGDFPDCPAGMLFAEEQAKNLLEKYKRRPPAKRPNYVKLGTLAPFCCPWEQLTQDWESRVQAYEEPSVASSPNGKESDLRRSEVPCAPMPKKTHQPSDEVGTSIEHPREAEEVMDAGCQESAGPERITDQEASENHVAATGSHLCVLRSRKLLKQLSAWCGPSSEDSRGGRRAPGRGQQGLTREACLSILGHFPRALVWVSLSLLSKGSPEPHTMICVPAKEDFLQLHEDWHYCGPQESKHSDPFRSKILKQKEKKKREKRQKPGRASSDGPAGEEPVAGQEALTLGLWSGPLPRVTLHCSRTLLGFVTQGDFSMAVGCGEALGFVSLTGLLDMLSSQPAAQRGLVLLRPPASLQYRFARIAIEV
UniProt P62937, whole entry, looked up: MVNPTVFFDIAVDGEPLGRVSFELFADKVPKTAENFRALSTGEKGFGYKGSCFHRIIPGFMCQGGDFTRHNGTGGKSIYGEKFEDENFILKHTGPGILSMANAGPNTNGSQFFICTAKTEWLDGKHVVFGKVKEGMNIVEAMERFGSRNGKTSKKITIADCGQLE
UniProt Q9Y2Y1: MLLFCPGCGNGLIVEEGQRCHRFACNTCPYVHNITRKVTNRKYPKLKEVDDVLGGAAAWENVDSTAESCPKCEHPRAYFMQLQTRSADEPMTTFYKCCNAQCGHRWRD
UniProt O00411: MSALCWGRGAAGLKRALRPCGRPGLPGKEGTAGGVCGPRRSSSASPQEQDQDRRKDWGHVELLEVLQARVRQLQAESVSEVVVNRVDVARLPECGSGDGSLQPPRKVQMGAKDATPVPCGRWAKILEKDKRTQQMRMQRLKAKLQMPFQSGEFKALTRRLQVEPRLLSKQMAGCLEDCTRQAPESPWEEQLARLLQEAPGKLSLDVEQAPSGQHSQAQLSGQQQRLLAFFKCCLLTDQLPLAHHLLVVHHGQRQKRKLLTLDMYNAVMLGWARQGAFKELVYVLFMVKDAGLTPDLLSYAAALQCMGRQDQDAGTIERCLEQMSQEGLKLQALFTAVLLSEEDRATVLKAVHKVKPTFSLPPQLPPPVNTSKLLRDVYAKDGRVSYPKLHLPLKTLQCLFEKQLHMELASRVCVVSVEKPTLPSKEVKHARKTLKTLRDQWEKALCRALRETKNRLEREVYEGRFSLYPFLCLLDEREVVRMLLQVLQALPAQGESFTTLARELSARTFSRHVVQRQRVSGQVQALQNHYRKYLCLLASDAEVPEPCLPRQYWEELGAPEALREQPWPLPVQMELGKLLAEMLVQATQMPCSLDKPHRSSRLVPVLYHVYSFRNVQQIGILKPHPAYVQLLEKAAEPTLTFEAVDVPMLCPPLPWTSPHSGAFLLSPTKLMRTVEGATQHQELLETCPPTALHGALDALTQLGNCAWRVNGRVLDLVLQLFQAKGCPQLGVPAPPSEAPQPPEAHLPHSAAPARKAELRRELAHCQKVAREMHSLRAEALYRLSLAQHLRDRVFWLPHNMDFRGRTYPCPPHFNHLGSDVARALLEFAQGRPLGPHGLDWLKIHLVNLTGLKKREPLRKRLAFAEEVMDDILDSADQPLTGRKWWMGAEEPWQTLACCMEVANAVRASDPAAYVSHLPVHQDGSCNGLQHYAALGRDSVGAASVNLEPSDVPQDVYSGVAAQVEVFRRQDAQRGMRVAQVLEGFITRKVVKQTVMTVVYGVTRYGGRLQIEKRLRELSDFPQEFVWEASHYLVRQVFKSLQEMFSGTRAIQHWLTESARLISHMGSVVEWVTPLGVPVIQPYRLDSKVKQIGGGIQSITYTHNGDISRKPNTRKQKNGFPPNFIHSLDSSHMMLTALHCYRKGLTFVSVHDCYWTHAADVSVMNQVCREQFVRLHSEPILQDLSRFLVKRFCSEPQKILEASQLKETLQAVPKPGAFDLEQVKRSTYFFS
UniProt Q9H9Y6, whole entry, looked up: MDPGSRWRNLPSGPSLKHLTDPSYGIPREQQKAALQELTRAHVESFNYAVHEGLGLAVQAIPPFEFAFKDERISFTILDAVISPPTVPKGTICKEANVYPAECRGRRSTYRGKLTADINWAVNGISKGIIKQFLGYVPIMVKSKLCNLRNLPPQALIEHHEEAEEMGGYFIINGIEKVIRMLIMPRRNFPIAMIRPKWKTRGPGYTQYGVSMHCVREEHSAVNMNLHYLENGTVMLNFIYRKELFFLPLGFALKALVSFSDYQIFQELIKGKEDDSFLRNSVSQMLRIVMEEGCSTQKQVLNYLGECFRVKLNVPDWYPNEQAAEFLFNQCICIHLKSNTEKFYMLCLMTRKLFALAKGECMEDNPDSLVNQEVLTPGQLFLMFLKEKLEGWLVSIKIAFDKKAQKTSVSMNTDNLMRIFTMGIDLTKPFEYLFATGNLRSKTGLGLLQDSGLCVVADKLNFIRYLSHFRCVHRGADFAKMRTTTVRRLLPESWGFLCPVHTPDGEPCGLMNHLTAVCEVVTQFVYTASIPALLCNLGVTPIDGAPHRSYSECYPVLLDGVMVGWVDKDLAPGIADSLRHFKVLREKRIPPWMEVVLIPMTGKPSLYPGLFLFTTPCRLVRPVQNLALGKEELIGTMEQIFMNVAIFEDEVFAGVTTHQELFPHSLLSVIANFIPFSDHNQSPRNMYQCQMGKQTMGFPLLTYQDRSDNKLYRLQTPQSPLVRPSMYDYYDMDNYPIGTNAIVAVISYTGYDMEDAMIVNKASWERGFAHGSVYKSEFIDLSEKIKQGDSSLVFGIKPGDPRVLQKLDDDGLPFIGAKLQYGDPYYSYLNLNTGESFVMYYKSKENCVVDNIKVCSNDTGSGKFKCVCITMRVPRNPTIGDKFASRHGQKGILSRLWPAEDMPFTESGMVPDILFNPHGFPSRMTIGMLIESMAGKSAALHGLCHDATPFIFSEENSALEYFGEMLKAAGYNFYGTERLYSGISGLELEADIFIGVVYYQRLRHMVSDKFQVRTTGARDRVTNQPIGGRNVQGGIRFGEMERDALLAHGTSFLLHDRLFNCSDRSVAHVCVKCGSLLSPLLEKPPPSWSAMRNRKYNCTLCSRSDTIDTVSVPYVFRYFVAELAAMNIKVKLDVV
UniProt Q8TCS8: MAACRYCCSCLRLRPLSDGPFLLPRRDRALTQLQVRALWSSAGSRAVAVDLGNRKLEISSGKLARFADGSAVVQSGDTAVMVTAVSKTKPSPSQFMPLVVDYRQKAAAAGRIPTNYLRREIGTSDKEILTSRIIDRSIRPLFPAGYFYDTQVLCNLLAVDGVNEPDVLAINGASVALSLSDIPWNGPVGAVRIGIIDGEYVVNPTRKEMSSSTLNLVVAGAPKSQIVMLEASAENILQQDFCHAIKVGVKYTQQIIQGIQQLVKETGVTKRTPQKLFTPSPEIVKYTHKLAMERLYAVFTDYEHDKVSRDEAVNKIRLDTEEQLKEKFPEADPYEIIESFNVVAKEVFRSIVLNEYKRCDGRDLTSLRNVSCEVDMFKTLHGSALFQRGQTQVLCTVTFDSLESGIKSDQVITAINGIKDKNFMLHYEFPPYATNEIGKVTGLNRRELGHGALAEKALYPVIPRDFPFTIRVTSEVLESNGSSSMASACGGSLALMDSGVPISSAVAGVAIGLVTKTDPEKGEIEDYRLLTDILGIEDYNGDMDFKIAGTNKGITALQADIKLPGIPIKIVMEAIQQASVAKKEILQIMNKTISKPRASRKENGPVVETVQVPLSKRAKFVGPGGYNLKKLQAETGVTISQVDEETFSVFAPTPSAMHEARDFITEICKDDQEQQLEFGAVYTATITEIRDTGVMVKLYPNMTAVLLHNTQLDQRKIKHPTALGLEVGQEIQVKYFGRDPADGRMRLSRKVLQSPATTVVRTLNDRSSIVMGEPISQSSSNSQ
UniProt Q7Z3K3: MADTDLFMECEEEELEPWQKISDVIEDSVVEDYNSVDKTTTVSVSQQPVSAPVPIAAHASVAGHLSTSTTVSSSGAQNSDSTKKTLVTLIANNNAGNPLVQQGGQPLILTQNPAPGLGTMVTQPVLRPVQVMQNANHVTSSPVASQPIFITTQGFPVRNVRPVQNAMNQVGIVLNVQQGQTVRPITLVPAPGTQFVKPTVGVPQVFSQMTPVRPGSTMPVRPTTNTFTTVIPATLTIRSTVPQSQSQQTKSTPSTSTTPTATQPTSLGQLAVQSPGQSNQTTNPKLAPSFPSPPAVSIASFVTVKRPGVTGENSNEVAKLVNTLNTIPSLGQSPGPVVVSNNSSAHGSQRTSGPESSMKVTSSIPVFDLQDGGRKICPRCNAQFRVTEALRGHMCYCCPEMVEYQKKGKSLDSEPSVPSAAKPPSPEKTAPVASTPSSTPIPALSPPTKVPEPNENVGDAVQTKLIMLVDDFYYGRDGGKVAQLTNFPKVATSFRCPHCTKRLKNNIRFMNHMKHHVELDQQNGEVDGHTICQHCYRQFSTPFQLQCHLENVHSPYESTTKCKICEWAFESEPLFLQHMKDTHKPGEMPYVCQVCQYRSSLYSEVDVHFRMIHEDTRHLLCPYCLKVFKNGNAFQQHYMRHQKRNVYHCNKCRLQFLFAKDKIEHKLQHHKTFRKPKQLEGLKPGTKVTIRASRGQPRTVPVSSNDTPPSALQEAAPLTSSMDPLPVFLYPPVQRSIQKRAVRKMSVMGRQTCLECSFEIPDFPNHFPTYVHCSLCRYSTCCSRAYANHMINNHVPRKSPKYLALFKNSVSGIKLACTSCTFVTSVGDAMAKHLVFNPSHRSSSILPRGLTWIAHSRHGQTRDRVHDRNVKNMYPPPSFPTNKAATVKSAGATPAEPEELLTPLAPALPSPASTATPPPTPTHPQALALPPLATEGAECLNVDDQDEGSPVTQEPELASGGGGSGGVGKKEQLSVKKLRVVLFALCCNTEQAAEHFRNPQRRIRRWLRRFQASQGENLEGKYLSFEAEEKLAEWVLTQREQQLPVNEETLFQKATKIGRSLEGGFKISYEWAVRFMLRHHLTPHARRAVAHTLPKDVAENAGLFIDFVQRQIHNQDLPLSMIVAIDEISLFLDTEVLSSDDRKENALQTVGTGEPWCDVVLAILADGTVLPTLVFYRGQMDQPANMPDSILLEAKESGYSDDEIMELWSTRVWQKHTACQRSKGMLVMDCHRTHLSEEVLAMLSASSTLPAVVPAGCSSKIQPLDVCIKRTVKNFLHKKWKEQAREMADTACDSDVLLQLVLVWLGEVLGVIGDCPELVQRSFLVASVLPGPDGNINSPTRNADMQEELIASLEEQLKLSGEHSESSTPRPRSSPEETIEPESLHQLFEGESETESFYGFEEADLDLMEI

Compound: CC1Cc2ccccc2N1C(=O)C1CCCN(C1)C(=O)CCl (mixture of isomers) [TRIM25 ligand 11 (diastereomer mixture)]
Assay: probe-labelled cysteine peptide fold change vs DMSO (competition) (log2 fold change); higher = less target engagement (more negative = stronger competition)
Conditions: THP-1, incubation time: 4 h
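Further: competitive chemoproteomic profiling in live THP-1 cells with an iodoacetamide desthiobiotin (IA-DTB) probe, comparing probe-labelled peptide intensities in compound-treated cells against DMSO-treated controls.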

Target	probe-labelled cysteine peptide fold change (10 µM)	probe-labelled cysteine peptide fold change (50 µM)
POFUT2_Q9Y2G5_375_DGGVAIIDQWICAHAR (UniProt Q9Y2G5)	-0.112	-0.0206
PPIB_P23284_202_DVIIADCGK (UniProt P23284)	0.00473	-0.133
PPIF_P30405_203_KIVITDCGQLS (UniProt P30405)	-0.0274	0.0199
POLA1_P09884_584_AAPKPPFQSHFCVVSK (UniProt P09884)	0.34	0.231
POLD1_P28340_360_LALTLRPCAPILGAK (UniProt P28340)	-0.173	-0.23
POR_P16435_363_KHPFPCPTSYR (UniProt P16435)	0.068	0.0389
PPFIBP1_Q86W92_926_QEDGEEYVCPMELGQASGSASK (UniProt Q86W92)	-0.183	-0.344
POP1_Q99575_471_WWIETCK (UniProt Q99575)	-0.0505	0.0147
POLR2B_P30876_1093_DCQIAHGAAQFLR (UniProt P30876)	-0.0664	-0.0912
POLE_Q07864_1935_IHCGLQDSQK (UniProt Q07864)	-0.0394	-0.0431
POLA2_Q14181_198_VLGCPEALTGSYK (UniProt Q14181)	0.0687	0.0426
POLR3B_Q9NW08_593_LCRPYIIVK (UniProt Q9NW08)	0.0353	0.144
PPIA_P62937_161_ITIADCGQLE (UniProt P62937)	0.0279	-0.165
POLR3K_Q9Y2Y1_97_CCNAQCGHR (UniProt Q9Y2Y1)	-0.244	0.109
POLR1A_O95602_582_LHYANCK (UniProt O95602)	0.0347	0.0645
POLR2A_P24928_233_ISDEECFVLGMEPR (UniProt P24928)	0.18	-0.072
POLRMT_O00411_413_VCVVSVEKPTLPSK (UniProt O00411)	-0.0627	0.103
POLR1A_O95602_968_FLTGIKPPEFFFHCMAGR (UniProt O95602)	-0.123	-0.0379
POLE_Q07864_2221_LMAFTLQDLVCLK (UniProt Q07864)	0.137	-0.0428
POLR2A_P24928_451_HMCDGDIVIFNR (UniProt P24928)	-0.0844	0.0058

Some of the entries above in a different format:
POLR2B_P30876_1093_DCQIAHGAAQFLR (UniProt P30876)
  probe-labelled cysteine peptide fold change (10 µM): -0.0664; probe-labelled cysteine peptide fold change (50 µM): -0.0912
POLE_Q07864_1935_IHCGLQDSQK (UniProt Q07864)
  probe-labelled cysteine peptide fold change (10 µM): -0.0394; probe-labelled cysteine peptide fold change (50 µM): -0.0431

Following part:

Target	probe-labelled cysteine peptide fold change (10 µM)	probe-labelled cysteine peptide fold change (50 µM)
POLR1B_Q9H9Y6_1101_KYNCTLCSR (UniProt Q9H9Y6)	0.0866	0.0739
PNPT1_Q8TCS8_242_SQIVMLEASAENILQQDFCHAIK (UniProt Q8TCS8)	0.0681	0.0804
POLQ_O75417_2411_ENDAACYIDSFK (UniProt O75417)	0.0656	-0.00781
PPID_Q08752_181_LCVIAECGELK (UniProt Q08752)	0.0345	-0.183
POLR1B_Q9H9Y6_1098+1101_KYNCTLCSR (UniProt Q9H9Y6)	0.0414	-0.0535
POLR2H_P52434_30_LHCESESFK (UniProt P52434)	0.23	0.0916
PPA1_Q15181_113+114+123_HTGCCGDNDPIDVCEIGSK (UniProt Q15181)	0.0115	-0.17
POLRMT_O00411_591_LLAEMLVQATQMPCSLDK (UniProt O00411)	0.305	-0.00917
POLR2B_P30876_357_EMLPHVGVSDFCETK (UniProt P30876)	-0.02	-0.0744
POP1_Q99575_530_CQDNEK (UniProt Q99575)	-0.0863	0.0606
POGZ_Q7Z3K3_987_VVLFALCCNTEQAAEHFR (UniProt Q7Z3K3)	0.303	0.251
POLR3E_Q9NVU0_103_QTFCSSQTTSNTSR (UniProt Q9NVU0)	0.0298	-0.0693
POLR2J_P52435_31_VPNACLFTINK (UniProt P52435)	-0.175	-0.0946
POLR1A_O95602_880_ACMPFGLHR (UniProt O95602)	-0.0708	-0.0333
POLR2A_P24928_184_GHGGCGR (UniProt P24928)	-0.0378	0.0214
POU2F2_P09086_187_CLEPPSHPEEPSDLEELEQFAR (UniProt P09086)	0.123	-0.0384
POGZ_Q7Z3K3_565_ICEWAFESEPLFLQHMK (UniProt Q7Z3K3)	0.152	0.204
PNPT1_Q8TCS8_359_CDGRDLTSLR (UniProt Q8TCS8)	-0.305	-0.0386
POC1A_Q8NBT0_66_DAVTCVNFSPSGHLLASGSR (UniProt Q8NBT0)	0.0194	-0.361
POLR1E_Q9GZS1_138_MDSCIEAFGTTK (UniProt Q9GZS1)	-0.0838	-0.267
